System: H. contortus moxidectin-resistant (MOF14) strain
Assay: Efficacy of verapamil with or without ivermectin in jirds, moxidectin resistant strain
Type: in vivo
Conditions: MOX-RESISTANT (MOF14) strain in jirds; oral; VRP 20 mg/kg; IVM 0.046 mg/kg

COc1ccc(CCN(C)CCCC(C#N)(c2ccc(OC)c(OC)c2)C(C)C)cc1OC (stereo not shown) [verapamil]
significance of worm counts: n.s.
